For at least one compound, name, drawing or mass did not settle the structure.
System: skin biopsies from abdominoplasty surgery
Test: Ex vivo skin model (abdominoplasty skin) response to forskolin, qPCR and immunohistofluorescence of melanogenic genes
Format: cell-based, human
[1] = 15 days of forskolin stimulation

Structure (SMILES): C=C[C@@]1(C)CC(=O)[C@]2(O)[C@@]3(C)[C@@H](O)CCC(C)(C)[C@@H]3[C@H](O)[C@H](OC(C)=O)[C@@]2(C)O1 [forskolin]
- melanogenic enzyme DCT, mRNA and protein level [1]: strong increase
- melanogenic enzyme tyrosinase, mRNA and protein level [1]: strong increase
- MITF mRNA expression (after 11 days of forskolin stimulation every other day, 20 μM to 1 mM, qPCR): up-regulation
- MITF protein expression (after 11 days of forskolin stimulation, immunohistostaining): up-regulation
- MITF mRNA expression (after 15 days, low forskolin concentration): high expression persists
